From patent publication US5324832A, “Muscarinic antagonists” (priority 1991, dated 1994)
At least one read-out could not be matched to a standard name with certainty.

Target: T1, m1 muscarinic receptors (Rattus norvegicus, UniProt P08482)
T1 sequence (P08482 1-460): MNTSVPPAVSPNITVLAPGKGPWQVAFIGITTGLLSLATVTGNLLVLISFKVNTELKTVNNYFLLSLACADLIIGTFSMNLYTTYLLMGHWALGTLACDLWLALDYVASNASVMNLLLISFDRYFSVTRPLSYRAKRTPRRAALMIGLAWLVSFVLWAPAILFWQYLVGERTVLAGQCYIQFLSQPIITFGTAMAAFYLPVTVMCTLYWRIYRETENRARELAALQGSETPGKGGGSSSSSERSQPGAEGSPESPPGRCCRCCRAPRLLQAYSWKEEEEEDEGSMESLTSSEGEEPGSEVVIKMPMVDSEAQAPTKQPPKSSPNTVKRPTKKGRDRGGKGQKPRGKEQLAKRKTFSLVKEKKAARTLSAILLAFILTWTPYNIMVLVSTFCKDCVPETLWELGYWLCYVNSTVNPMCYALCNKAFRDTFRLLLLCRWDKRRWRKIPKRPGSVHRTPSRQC
Test: Irreversible labelling: [3H]NMS saturation of treated vs. control rat forebrain membranes
Type: binding
Settings: after thorough washing
Protocol: When incubated with membranes from rat forebrain tissue […] followed by thorough washing, compound 41a caused an unrecoverable reduction in the Bmax at m1 receptors of 90-95% (from saturation of treated vs. control membranes with [3H]NMS).

**Q.** How did the “unrecoverable reduction in the Bmax at m1 receptors” value turn out when `O=C1Nc2cccnc2N(C(=O)CN2CCN(CCCCCCCCCCNC(=S)Nc3cccc(N=C=S)c3)CC2)c2ccccc21` [Compound 41a, n=10, 5,11-Dihydro-11-[[4-[10-[(3-isothiocyanatophenyl)aminothiocarbonylamino]decyl]-1-piperazinyl]acetyl]-6H-pyrido[2,3-b][1,4]-benzodiazepine-6-one] was run?
**A.** 90-95%
